Source: publication PMC11136921
No constants are given. Whether binding was seen depends on the method and setting. In cells and extracts the contact can be indirect. A yes stands for co-enrichment or nearness to the bait. Other partners may have been found.

The chains behind the UniProt entries cited, without tags or fusion partners. Where a name states a change or a piece, a line headed by the entry shows the natural chain unless it says otherwise.
UniProt I7MMT8: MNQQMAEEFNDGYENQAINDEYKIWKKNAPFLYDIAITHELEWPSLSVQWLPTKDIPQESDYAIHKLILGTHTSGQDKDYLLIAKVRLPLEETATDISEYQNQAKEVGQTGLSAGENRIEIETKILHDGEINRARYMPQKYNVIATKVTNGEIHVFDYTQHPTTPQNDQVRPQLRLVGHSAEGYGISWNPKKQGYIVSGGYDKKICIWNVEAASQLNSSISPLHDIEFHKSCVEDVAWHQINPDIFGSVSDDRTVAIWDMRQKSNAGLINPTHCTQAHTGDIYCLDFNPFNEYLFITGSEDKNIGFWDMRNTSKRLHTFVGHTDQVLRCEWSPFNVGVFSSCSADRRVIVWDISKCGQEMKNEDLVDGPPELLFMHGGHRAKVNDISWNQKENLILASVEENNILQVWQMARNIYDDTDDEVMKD
UniProt I7LV35: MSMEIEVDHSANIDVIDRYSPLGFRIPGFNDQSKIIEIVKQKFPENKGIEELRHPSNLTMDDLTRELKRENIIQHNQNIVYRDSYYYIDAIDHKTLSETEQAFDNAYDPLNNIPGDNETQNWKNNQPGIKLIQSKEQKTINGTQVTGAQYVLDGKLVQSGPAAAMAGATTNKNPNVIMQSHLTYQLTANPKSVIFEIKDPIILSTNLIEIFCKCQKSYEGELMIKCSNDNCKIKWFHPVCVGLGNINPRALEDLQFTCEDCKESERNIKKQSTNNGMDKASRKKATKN
UniProt Q238S4: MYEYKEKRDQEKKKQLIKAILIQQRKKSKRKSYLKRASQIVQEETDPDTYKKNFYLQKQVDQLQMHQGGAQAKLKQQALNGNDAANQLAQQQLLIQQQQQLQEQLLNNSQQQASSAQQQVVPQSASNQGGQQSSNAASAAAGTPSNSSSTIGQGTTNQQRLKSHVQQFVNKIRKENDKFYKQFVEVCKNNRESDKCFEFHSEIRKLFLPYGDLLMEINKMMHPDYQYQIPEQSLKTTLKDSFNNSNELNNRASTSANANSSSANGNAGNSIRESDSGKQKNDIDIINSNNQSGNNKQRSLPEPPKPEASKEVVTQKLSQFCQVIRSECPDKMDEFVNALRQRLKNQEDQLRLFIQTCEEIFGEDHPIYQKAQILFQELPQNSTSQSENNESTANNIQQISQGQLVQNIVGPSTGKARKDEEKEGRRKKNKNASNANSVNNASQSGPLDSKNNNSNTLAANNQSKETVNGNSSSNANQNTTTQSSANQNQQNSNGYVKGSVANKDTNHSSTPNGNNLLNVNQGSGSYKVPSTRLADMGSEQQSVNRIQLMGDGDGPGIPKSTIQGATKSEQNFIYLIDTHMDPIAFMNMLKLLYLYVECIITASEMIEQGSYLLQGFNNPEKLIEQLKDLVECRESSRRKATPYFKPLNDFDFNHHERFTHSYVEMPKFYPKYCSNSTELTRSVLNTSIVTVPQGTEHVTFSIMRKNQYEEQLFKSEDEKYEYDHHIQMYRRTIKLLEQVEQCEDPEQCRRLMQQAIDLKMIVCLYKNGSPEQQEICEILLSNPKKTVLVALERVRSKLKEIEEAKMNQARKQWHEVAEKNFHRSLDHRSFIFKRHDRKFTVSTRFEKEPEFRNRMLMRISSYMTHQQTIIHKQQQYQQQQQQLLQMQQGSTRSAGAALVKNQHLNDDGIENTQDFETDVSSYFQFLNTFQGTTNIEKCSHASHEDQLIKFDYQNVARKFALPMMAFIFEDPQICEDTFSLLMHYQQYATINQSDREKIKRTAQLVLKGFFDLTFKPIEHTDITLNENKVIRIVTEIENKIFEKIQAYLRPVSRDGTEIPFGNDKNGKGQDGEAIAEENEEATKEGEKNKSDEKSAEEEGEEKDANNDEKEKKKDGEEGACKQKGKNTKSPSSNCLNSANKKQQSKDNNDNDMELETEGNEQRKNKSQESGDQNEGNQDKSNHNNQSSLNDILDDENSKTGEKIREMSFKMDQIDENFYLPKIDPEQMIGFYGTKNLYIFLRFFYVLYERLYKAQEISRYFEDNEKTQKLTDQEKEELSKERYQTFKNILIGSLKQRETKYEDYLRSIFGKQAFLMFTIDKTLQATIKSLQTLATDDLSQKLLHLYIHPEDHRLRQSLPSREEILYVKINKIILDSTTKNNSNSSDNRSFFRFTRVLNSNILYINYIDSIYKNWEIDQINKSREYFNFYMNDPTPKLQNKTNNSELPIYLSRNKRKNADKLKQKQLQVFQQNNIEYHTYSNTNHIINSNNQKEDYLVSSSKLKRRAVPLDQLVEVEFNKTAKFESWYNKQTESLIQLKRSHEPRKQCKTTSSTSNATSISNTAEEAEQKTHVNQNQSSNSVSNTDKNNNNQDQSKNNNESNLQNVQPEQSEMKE
UniProt Q22DB9: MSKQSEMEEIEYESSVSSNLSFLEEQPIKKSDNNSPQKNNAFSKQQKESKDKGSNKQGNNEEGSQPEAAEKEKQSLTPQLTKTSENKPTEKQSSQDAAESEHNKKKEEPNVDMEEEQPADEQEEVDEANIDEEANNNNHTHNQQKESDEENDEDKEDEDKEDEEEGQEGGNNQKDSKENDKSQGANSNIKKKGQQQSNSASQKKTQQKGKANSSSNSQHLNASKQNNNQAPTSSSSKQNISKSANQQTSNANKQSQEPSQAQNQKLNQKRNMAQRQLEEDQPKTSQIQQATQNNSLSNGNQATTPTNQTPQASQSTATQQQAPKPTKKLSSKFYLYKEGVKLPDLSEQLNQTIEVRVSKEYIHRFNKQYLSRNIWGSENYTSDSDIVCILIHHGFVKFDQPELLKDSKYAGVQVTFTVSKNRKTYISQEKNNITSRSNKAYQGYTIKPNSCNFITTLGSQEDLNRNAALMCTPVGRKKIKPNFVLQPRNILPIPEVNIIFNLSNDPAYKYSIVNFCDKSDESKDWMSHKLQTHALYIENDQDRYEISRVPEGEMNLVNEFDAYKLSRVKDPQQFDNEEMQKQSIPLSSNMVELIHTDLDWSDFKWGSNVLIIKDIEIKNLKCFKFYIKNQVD
UniProt I7MEY9: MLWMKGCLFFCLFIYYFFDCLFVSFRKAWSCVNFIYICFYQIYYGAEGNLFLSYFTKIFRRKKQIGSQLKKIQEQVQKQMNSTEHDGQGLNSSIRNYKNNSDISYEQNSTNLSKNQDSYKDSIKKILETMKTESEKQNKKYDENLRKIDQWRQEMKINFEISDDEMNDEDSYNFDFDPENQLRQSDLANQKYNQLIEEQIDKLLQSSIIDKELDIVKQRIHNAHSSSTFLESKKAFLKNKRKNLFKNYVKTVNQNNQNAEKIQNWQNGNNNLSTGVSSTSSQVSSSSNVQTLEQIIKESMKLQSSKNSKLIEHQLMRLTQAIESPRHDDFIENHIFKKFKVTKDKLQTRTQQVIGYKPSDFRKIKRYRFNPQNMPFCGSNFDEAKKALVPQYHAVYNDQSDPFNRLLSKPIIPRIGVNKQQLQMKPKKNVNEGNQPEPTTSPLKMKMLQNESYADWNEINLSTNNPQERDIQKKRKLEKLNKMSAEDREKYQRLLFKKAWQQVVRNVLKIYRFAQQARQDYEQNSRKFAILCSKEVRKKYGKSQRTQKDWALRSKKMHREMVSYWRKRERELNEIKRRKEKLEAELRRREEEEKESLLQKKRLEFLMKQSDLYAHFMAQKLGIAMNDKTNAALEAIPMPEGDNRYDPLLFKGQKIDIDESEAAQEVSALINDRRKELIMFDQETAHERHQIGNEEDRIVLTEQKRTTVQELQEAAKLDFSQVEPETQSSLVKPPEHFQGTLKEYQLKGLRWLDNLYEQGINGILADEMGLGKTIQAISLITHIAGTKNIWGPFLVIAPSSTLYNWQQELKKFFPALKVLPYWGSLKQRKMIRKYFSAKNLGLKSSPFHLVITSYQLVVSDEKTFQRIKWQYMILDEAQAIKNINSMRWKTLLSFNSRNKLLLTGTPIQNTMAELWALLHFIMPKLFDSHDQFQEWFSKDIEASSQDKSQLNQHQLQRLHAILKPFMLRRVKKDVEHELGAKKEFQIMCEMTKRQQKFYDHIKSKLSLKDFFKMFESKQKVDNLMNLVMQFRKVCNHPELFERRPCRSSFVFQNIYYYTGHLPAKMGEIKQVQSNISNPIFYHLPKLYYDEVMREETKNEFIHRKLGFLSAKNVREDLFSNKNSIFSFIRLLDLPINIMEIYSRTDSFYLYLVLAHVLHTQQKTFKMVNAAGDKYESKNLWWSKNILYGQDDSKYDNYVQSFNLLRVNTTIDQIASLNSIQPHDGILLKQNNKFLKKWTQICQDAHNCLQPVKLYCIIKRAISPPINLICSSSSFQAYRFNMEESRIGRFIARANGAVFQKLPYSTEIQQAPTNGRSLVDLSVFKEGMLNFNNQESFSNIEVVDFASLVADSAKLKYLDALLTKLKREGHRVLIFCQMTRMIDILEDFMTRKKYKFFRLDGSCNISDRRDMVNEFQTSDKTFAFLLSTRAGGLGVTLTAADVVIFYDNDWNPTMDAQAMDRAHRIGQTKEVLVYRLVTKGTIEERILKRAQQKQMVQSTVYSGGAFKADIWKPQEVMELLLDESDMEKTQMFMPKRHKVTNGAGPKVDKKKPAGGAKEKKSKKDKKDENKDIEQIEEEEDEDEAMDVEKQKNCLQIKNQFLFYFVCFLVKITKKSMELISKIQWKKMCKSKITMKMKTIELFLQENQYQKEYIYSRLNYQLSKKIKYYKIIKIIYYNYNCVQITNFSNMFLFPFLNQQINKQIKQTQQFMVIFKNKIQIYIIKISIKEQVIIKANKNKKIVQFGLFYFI

Assays:
[1] = molecular target: RebL1-HA (T. thermophila) (UniProt I7MMT8); experiment: affinity purification with mass spectrometry; RebL1-HA cells in vegetative growth; lysate on anti-HA agarose overnight at 4 °C, washed seven times with TBST; control: WT cells without HA-tag; hits: RebL1-HA/WT peptide count ratio more than 40
[2] = molecular target: RebL1-HA (T. thermophila) (UniProt I7MMT8); experiment: affinity purification with mass spectrometry; RebL1-HA cells at 8 h of conjugation; lysate on anti-HA agarose overnight at 4 °C, washed seven times with TBST; control: WT cells without HA-tag; hits: RebL1-HA/WT peptide count ratio more than 20

Substance | binding [1] | binding [2]
TTHERM_00476650/Pho23 (from UniProt I7LV35) | binds | 
TTHERM_00450950/Sin3 (from UniProt Q238S4) | binds | binds
TTHERM_00992830/Rxt3 (from UniProt Q22DB9) | binds | 
TTHERM_00343570 (homologous to INO80 ATPase in yeast) (from UniProt I7MEY9) |  | binds
